## Percent effect of library compounds

Mtb glucose medium: 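Growth of Mycobacterium tuberculosis over 3 days (7H9 medium with glucose and tyloxapol); the read-out is not stated. Tested at 50 µM. Higher reads as more growth inhibition (inferred: compounds with an IC50 in retests scored well above the rest). Of about 69,000 compounds tested this way, about 760 (1.1%) reached 50% or more in at least one test.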
Mtb cholesterol medium: 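Whole-cell growth test on Mycobacterium tuberculosis, read after 4 days in a medium based on cholesterol and the lipid DPPC; the read-out is not stated. Compounds at 50 µM. The record gives no direction; compounds that gave an IC50 in retests scored well above the rest, so higher reads as more growth inhibition. Of about 69,000 compounds tested this way, about 370 (0.54%) reached 50% or more in at least one test.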

Values are the deposited “Percent Effect”, in %.
How 0% and 100% were set is not recorded. Most values in the screen are low, and negative values occur.
This is an unselected part of the compounds tested.
Two or more numbers in one place are separate tests of the same structure; such repeats can differ widely.

Compound,Mtb glucose medium,Mtb cholesterol medium
CC(C)N1CCc2ncn(C(C)C)c2C1C(=O)NCCN1CCCC1 (centres undefined),29.39% & -7.753%,11.22%
CNc1ncc(CN(C)C(=O)c2cccc(-n3cccn3)c2)cn1,-32.83%,-7.56%
CC(C)N1CCC(Nc2ccn(C)n2)C1=O (centres undefined),-0.04836% & -4.173%,16.97% & -2.721%
Cc1ccccc1C(=O)NCc1ccnc(N(C)C)c1,-0.305%,-22.84%
O=C(CN1C(=O)CCNC1=O)N1CCOC(c2ccc(F)cc2)C1 (centres undefined),1.281%,-5.796% & -8.306%
CC(C)CCC(=O)N1CCCC2(CCN(Cc3ccccc3C#N)C2)C1 (centres undefined),4.478%,7.69%
O=C(CN1CCCC1c1nc(-c2ccccn2)no1)N1CCNCC1 (centres undefined),-27.43%,-6.577% & -24.35%
CCC(C)N(Cc1cccnc1)Cc1cc2c(cc1Cl)OCO2 (centres undefined),21.62%,10.73%
CC(C(=O)N1CCCCCC1)N1CCN(c2nccs2)CC1 (centres undefined),16.11%,3%
CC(=O)N(Cc1noc(C)n1)C1CCN(Cc2ccccc2C#N)C1 (centres undefined),3.768%,-4.863%
CC(=O)N1CCCN(C(=O)c2csc(-c3ccc(C)cc3C)n2)CC1,13.11%,-1.622%
CCC(CC)C(CNC(=O)Nc1cnn(CCOC)c1)N(C)C (centres undefined),8.252% & 35.13%,13.37% & -0.4584%
COc1ccc(C(=O)C2CCCN(Cc3cccc(F)c3)C2)c(OC)c1 (centres undefined),27.23%,4.721%
[H][C@@]12CCCO[C@]1([H])[C@H](n1cccn1)CN2Cc1nccs1,-7.434% & 8.495%,11.03%
Cc1csc(CNC(=O)N(C)Cc2ccc3c(c2)OCCO3)n1,-7.923%,13.11%
Cc1cnn(C2CN(CC(O)c3ccc(F)cc3)C2)c1 (centres undefined),5.729%,14.66%
CCOC(=O)c1nc(COc2c(C)occc2=O)no1,-17.89%,-26.57%
O=C(NCC1CC1)C1CCCN(c2cccc(C(F)(F)F)n2)C1 (centres undefined),54.05%,36.4%
NC(=O)CN1CCC(c2cncc(-c3cccc(Cl)c3)n2)CC1,10.42%,23.21%
Cc1cc(C)n2c(CCCNS(=O)(=O)c3cccs3)nnc2n1,-13.76%,10.89%
CN(C)Cc1nnc(C2CCCN(c3cc(C(F)(F)F)ccn3)C2)n1C (centres undefined),-5.465% & 1.78%,12.52%
COCC1c2nnn(CC3CC3)c2CCN1C(=O)c1ccnnc1 (centres undefined),32.31%,5.269%
COc1ccc(-c2noc([C@@H](C)NS(=O)(=O)CC(C)C)c2C(=O)O)cc1,-20.54% & -6.316%,-24.13%
Cn1c(C2CC2)nc2cc(NC(=O)C3CC=CC3)ccc21,2.793%,6.676%
CC1CN(C2CCN(Cc3nccn3CC(F)(F)F)CC2)CCO1 (centres undefined),5.107%,-4.087%
CCCc1noc(C(C)N2CC(n3cccn3)C2)n1 (centres undefined),-21.05% & -2.01%,-8.841%
COc1cc(CNCC(O)c2ccc(F)c(F)c2)cc2c1OCO2 (centres undefined),-17.82%,-1.374%
CCc1cc(N2CCC(Nc3ccc(Cl)cn3)CC2)ncn1,-14.03%,0.3336% & 13.82%
COc1ccccc1C1(CNc2ncc(S(N)(=O)=O)s2)CC1,-3.263% & 5.148%,1.24%
c1ccc(OCc2cscn2)c(CNC2CCc3ncnn3C2)c1 (centres undefined),-9.096%,1.132%
Cc1cc(=O)n(CC(=O)NCC2CCCO2)c(-c2ccccc2)n1 (centres undefined),26.73%,8.975%
O=C(NC1CCCN(c2ccccc2Cl)C1)c1nc(=O)[nH][nH]1 (centres undefined),7.013%,-28.86%
Cc1cc(C(=O)N2CCCC(n3cncn3)C2)c(C)n1CC1CC1 (centres undefined),-27.5%,-22.89%
[H][C@@]12CNC[C@]1([H])CN(C(=O)c1cc(F)cc(F)c1)C2,-18.77%,-1.866%
COc1ccc(C(=O)NCc2ccco2)nn1,53.95%,15.68%
Cc1ccc(-n2nnc(CC(=O)N3CCN(C(C)C)CC3)c2C)cc1,-19.51%,2.108%
Cc1cn[nH]c1C1CCCCN1C(=O)CCc1c(C)n[nH]c1C (centres undefined),-6.058%,-6.485%
CC(C)(C)NC(=O)C1CSCN1S(=O)(=O)c1ccccc1F (centres undefined),5.927%,-21.63%
CCCNC(=O)CNc1cc(C(=O)N2CCSCC2)ccc1C,1.641%,-14.37%
O=C1CCCN1Cc1nnc(SCc2ccc3c(c2)CCC3)o1,31.7%,26.86% & 41.45%
CCOCc1nc2c(c(NCCNC(C)=O)n1)CCN(C(C)=O)CC2,-32.91%,-6.947%
O=C1N(c2cccc(Cl)c2)Cc2nc(=O)n(Cc3cccc(F)c3)n21,-5.028%,0.8935%
CCn1cc(-c2cc(-c3cc(CN(C)C)cs3)nc(N)c2C#N)c(C)n1,35.57%,35.48%
Cc1ccc(-n2nnc(CC(=O)N3CCSCC3)c2C)cc1,2.307%,1.623%
CN1CC[C@]2(CN(C(=O)c3ccc[nH]3)C[C@H]2c2ccccc2)C1=O,-15.92% & 4.994%,4.064%
Cc1ccc(OCC(=O)Nc2cc(C(=O)O)cc(S(C)(=O)=O)c2)cc1C,7.773%,9.371%
Cc1ccc(CNCc2cccc3cn[nH]c23)c(OC2CCOC2)c1 (centres undefined),13.96% & 1.683%,7.245%
COC(=O)CC(c1ccc(O)c(Cl)c1)c1oc(C)cc(=O)c1O (centres undefined),-2.8%,-6.148%
Cc1ccc(CN2CCC3(CC2)CC(CC(=O)NC(C)C)CO3)s1.O=C(O)C(F)(F)F (centres undefined),-24.22%,-5.41% & 3.831%
COCCN1CCCC1Cn1nc(C)cc1C (centres undefined),3.124%,-8.294%
O=C1CCC(=O)c2oc3ccc(Br)cc3c2N1,19.57%,7.395%
O=C1CCCC2=C1C(c1ccccc1Cl)Nc1nonc1N2 (centres undefined),1.835% & -13.19%,-40.27%
CN1CCc2[nH]cnc2C12CCN(C(=O)CCc1cccs1)CC2,-20.39%,-19.86%
O=C(c1cc(-c2ccn(CC3CC3)n2)n2ccccc12)N1CCOCC1,36.06% & 12.6%,11.3%
CC(=O)N1CCCN(C(=O)C(C)n2cncn2)CC1 (centres undefined),12.07%,-1.401%
CN(Cc1ccc2nsnc2c1)CC1(O)CNCCOC1 (centres undefined),-14.12%,0.3765%
Cc1nc(CN2CCCC(CCNS(C)(=O)=O)C2)c[nH]1 (centres undefined),-22.2%,3.361%
CCc1noc(CN2CCCN(C(N)=O)CC2)n1,19.02%,4.87%
N#CC1C(=O)Nc2c(cnn2C2CCCC2)C12CCCC2 (centres undefined),-15.12%,-2.321%
O=C(Cn1ccc2ccc(Br)cc21)NCc1ccc(C(=O)O)cc1,20.73% & -6.416%,-5.912%
CCc1ncc2c(n1)CN(CC(=O)Nc1cccnc1)CC2,-26.59%,-31.23%
Cc1csc(C2(NCc3nnc(-c4ccco4)o3)CCCC2)n1,32.13%,41.96%
CCc1ncc2c(n1)CN(CCCOc1ccc(C#N)cc1)CC2,-0.8627% & 13.24%,-7.559%
CC(C)n1cc(CN2CCCN(C(=O)C3(C)CCOCC3)CC2)cn1,-9.404% & -8.646%,-0.4269%
CC(=O)N1N=C(c2ccco2)OC1C(=O)NCCc1ccc(F)cc1 (centres undefined),-6.525%,10.55%
COc1ccccc1OCC(=O)N1CCN(Cc2noc(C)n2)CC1,12.37%,4.69%
O=C(c1cc2cc(F)ccc2[nH]1)N1CCC(Nc2cccnn2)CC1,-5.688%,-19.83%
Cn1ncc2c(NCC(=O)N3CCNCC3)nc(C(C)(C)C)nc21,4.284%,-0.07319%
Cc1nccn1C1CCCN(C(=O)c2ccc(N(C)C)nc2)C1 (centres undefined),2.576%,-9.021%
Cc1ccccc1C(C(=O)NCc1nc(-c2ncccn2)no1)N(C)C (centres undefined),-10.7%,-2.051%
Cc1ccccc1CN(C)C(=O)CCc1nc(-c2nnc[nH]2)no1,-38.36%,-27.21%
Cc1ccc(CN2CCc3ncc(CNS(C)(=O)=O)n3CC2)o1.O=C(O)C(F)(F)F,-8.828%,-16.88%
CC(C)(C)c1n[nH]c(C2CN(C(=O)CCc3cscn3)CCO2)n1 (centres undefined),-23.5%,5.307%
N#CCCCS(=O)(=O)NC1(c2cccc(Cl)c2)CC1,-9.873%,6.27%
CCCC(NC(=O)c1cncc(C)c1)c1nnn[nH]1 (centres undefined),-43.79%,-19.45% & -14.45%
COC(C)(C)CNC(=O)N1CCCC1c1c(C)n[nH]c1C (centres undefined),-14.48%,0.4632%
CCOc1ncccc1NC(=O)NC1CCCN(c2ncccn2)C1 (centres undefined),19.62%,4.79%
CC(C)CC(CCO)CNC(=O)N1CCC1(C)C (centres undefined),14.91% & 4.104%,25.59%
O=C(NC(c1ccc(Cl)cc1)c1cccnc1)C1CC1 (centres undefined),15.76%,-1.739%
CCN(c1ccccc1)S(=O)(=O)c1cc(C(=O)O)cc2c1CCC2,-11.94%,-22.53%
O=S(=O)(CCN1CCCCC1Cn1cncn1)c1ccccc1 (centres undefined),-19.62%,-41.55%
Cc1csc(NC(=O)CN(C)CCOc2cccc(F)c2)n1,-5.8% & 15.8%,-0.5216%
CCc1ncc2c(n1)CN(c1nc(C)ccc1C(=O)O)C2,0.2898% & -2.295%,-5.956%

8 of the entries, repeated:

- Cc1ccccc1C(C(=O)NCc1nc(-c2ncccn2)no1)N(C)C (centres undefined) : Mtb glucose medium: -10.7%; Mtb cholesterol medium: -2.051%
- CCc1noc(CN2CCCN(C(N)=O)CC2)n1 : Mtb glucose medium: 19.02%; Mtb cholesterol medium: 4.87%
- O=C(Cn1ccc2ccc(Br)cc21)NCc1ccc(C(=O)O)cc1 : Mtb glucose medium: 20.73% & -6.416%; Mtb cholesterol medium: -5.912%
- Cn1ncc2c(NCC(=O)N3CCNCC3)nc(C(C)(C)C)nc21 : Mtb glucose medium: 4.284%; Mtb cholesterol medium: -0.07319%
- Cc1csc(CNC(=O)N(C)Cc2ccc3c(c2)OCCO3)n1 : Mtb glucose medium: -7.923%; Mtb cholesterol medium: 13.11%
- Cc1ccccc1C(=O)NCc1ccnc(N(C)C)c1 : Mtb glucose medium: -0.305%; Mtb cholesterol medium: -22.84%
- [H][C@@]12CNC[C@]1([H])CN(C(=O)c1cc(F)cc(F)c1)C2 : Mtb glucose medium: -18.77%; Mtb cholesterol medium: -1.866%
- O=C(c1cc2cc(F)ccc2[nH]1)N1CCC(Nc2cccnn2)CC1 : Mtb glucose medium: -5.688%; Mtb cholesterol medium: -19.83%

The values are deposited in ChEMBL (CHEMBL3988442, “University of Dundee, Small-Polar-MMV Screening Library” (2021)).